The list is a part of this screen's results and no random one: it is rich in T/C values a quarter to a half above the control, in often repeated tests (any T/C) and in doses without a T/C. Further doses and runs are listed elsewhere. T/C: endpoint of the treated group in % of that of the vehicle group. Some entries give survivors of the animals treated and no T/C: the source holds a T/C of zero for them, seemingly a mark for toxic or unscored doses. Some survivor counts are full or nearly so, which does not show that the dose was tolerated: survival well below the control is almost never listed, so the zero probably covers shortened survival too. Survivors were counted at the toxicity check, usually on the fifth day, unless a day is given; later deaths do not show. Schedule codes are those of the source, read here as Q, the interval in days (D) or hours (H), X, the number of doses. Some entries hold several experiments; their values stand side by side, smallest first. For survival time, the PubChem record calls one and a half times the control and up active, and a quarter to a half above the control has no call in these data; cut-offs in other NCI protocols can differ.
System: P388 leukemia ip, CD2F1 mice, survival T/C
Assay: NCI In Vivo Anticancer Drug Screen. Data for tumor model P388 Leukemia (intraperitoneal) in CD2F1 (CDF1) mice
Conditions: T/C endpoint: median survival time, higher T/C = longer survival
[1] = dose: 100.0 mg/kg/injection, schedule: Q01DX009 (ip), vehicle: saline with Tween-80
[2] = dose: 400.0 mg/kg/injection, schedule: Q01DX009 (ip), vehicle: saline with Tween-80
[3] = dose: 100.0 mg/kg/injection, schedule: Q01DX005 (ip), vehicle: saline
[4] = dose: 200.0 mg/kg/injection, schedule: Q01DX005 (ip), vehicle: saline
[5] = dose: 120.0 mg/kg/injection, schedule: Q01DX005 (ip), vehicle: saline with Tween-80
[6] = dose: 240.0 mg/kg/injection, schedule: Q01DX005 (ip), vehicle: saline with Tween-80
[7] = dose: 400.0 mg/kg/injection, schedule: Q04DX003 (ip), vehicle: saline with Tween-80
[8] = dose: 100.0 mg/kg/injection, schedule: Q01DX005 (ip), vehicle: saline with Tween-80
[9] = dose: 200.0 mg/kg/injection, schedule: Q01DX009 (ip), vehicle: saline with Tween-80
[10] = dose: 200.0 mg/kg/injection, schedule: Q01DX005 (ip), vehicle: saline with Tween-80
[11] = dose: 200.0 mg/kg/injection, schedule: Q01DX009 (ip), vehicle: Klucel (hydroxypropylcellulose) (HPC)

`OCCN(Cc1ccccn1)Cc1ccccn1` was tested, and the survivor count (dose: 30.0 mg/kg/injection, schedule: Q01DX005 (ip), vehicle: saline) was 3 of 6, the survivor count (dose: 60.0 mg/kg/injection, schedule: Q01DX005 (ip), vehicle: saline) was 0 of 6 and the survivor count (dose: 120.0 mg/kg/injection, schedule: Q01DX005 (ip), vehicle: saline) was 0 of 6. The survivor count (dose: 240.0 mg/kg/injection, schedule: Q01DX005 (ip), vehicle: saline) was 0 of 6.

For `O=c1[nH]c(=O)n([C@H]2CCCO2)cc1F`, the T/C [1] was 135 % of control, the T/C (dose: 134.0 mg/kg/injection, schedule: Q01DX009 (ip), vehicle: Klucel (hydroxypropylcellulose) (HPC)) was 129 % of control and the T/C (dose: 288.0 mg/kg/injection, schedule: Q04DX003 (ip), vehicle: Klucel (hydroxypropylcellulose) (HPC)) was 131 % of control. For the same molecule, the survivor count [2] was 5 of 6, the T/C (dose: 430.0 mg/kg/injection, schedule: Q04DX003 (ip), vehicle: Klucel (hydroxypropylcellulose) (HPC)) was 142 % of control and the T/C (dose: 957.0 mg/kg/injection, schedule: Q01DX001 (ip), vehicle: Klucel (hydroxypropylcellulose) (HPC)) was 134 % of control. The survivor count (dose: 1436.0 mg/kg/injection, schedule: Q01DX001 (ip), vehicle: Klucel (hydroxypropylcellulose) (HPC)) was 3 of 10.

`C=C1CC2(CC[N+](Cc3ccccc3)(Cc3ccccc3)CC2)OC1=O` was tested, and the survivor count [3] was 0 of 5 and the survivor count [4] was 0 of 5.

`O=C1CCSC(=S)N1c1ccc(Cl)c([N+](=O)[O-])c1` was tested, and the T/C (dose: 200.0 mg/kg/injection, schedule: Q01DX009 (ip), vehicle: suspension in saline) was 133 % of control.

In the case of `CCOC(=O)/C(=C/c1ccco1)C(C)=O`, the survivor count (dose: 400.0 mg/kg/injection, schedule: Q01DX009 (ip), vehicle: Klucel (hydroxypropylcellulose) (HPC)) is reported as 2 of 6.

`CCOP1(OCC)(SSC)OC(=O)C(C)S1` (stereo unspecified) was tested, and the survivor count [5] was 2 of 6 and the survivor count [6] was 0 of 6.

With `O=C(O)CC(=O)C(=O)O` the survivor count (dose: 400.0 mg/kg/injection, schedule: Q04DX002 (ip), vehicle: saline) was 3 of 6.

For `Cc1cc2c(cc1C)NC(C)CC(=O)N2` (stereo unspecified), the survivor count [7] was 3 of 6.

With `CN(C)CC(CN(C)C)C(=O)c1ccc(O)cc1` the survivor count (dose: 50.0 mg/kg/injection, schedule: Q01DX005 (ip), vehicle: saline) was 0 of 5, the survivor count [3] was 0 of 5 and the survivor count [4] was 0 of 5.

In the case of `CCC(C)n1c(C)nc2cc(C(F)(F)F)cc(N)c21` (stereo unspecified), the survivor count (dose: 200.0 mg/kg/injection, schedule: Q01DX009 (ip), vehicle: saline + alcohol) is reported as 3 of 6.

In the case of `CCc1cccc(CC)c1N1C(=O)C(=O)C(C(C)=O)C1=O` (stereo unspecified), the survivor count [8] is reported as 3 of 6.

For `COP1(=O)OC(C)=C(C)c2cccn21` (stereo unspecified), the survivor count (dose: 200.0 mg/kg/injection, schedule: Q04DX003 (ip), vehicle: saline with Tween-80) was 6 of 6 and the survivor count [7] was 2 of 6.

For `Cc1ccc(NC(=O)c2cc3ccccc3cc2O)c(C)c1.Cc1ccc(NC(=O)c2cc3ccccc3cc2[O-])c(C)c1.[Ni+2]`, the survivor count (dose: 12.5 mg/kg/injection, schedule: Q01DX009 (ip), vehicle: saline) was 6 of 6, the survivor count (dose: 25.0 mg/kg/injection, schedule: Q01DX009 (ip), vehicle: saline) was 6 of 6 and the survivor count (dose: 50.0 mg/kg/injection, schedule: Q01DX009 (ip), vehicle: saline) was 6 of 6. The survivor count (dose: 100.0 mg/kg/injection, schedule: Q01DX009 (ip), vehicle: saline) was 1 of 6 and the survivor count (dose: 200.0 mg/kg/injection, schedule: Q01DX009 (ip), vehicle: saline) was 0 of 6.

`C[C@]12CC[C@@H]3c4ccc(O)c(N)c4CC[C@H]3[C@@H]1CC[C@@H]2O` was tested, and the survivor count (dose: 50.0 mg/kg/injection, schedule: Q01DX005 (ip), vehicle: saline with Tween-80) was 6 of 6.

`O=NNc1ncccn1` was tested, and the T/C (dose: 200.0 mg/kg/injection, schedule: Q01DX009 (ip), vehicle: water) was 130 % of control.

`O=S1CCS(=O)C1c1ccccc1` (stereo unspecified) was tested, and the survivor count (dose: 200.0 mg/kg/injection, schedule: Q01DX005 (ip), vehicle: other) was 1 of 6.

In the case of `NNC(=O)CCc1ccccc1Br`, the survivor count [9] is reported as 4 of 6.

In the case of `COc1ccc2c3c([nH]c2c1N)C(C)NCC3` (stereo unspecified), the survivor count (dose: 200.0 mg/kg/injection, schedule: Q01DX005 (ip), vehicle: Klucel (hydroxypropylcellulose) (HPC)) is reported as 0 of 6.

For `O=C1CCCCC1C(=O)C(F)(F)F` (stereo unspecified), the survivor count (dose: 200.0 mg/kg/injection, schedule: Q01DX009 (ip), vehicle: saline + Tween-80 + alcohol) was 3 of 6.

With `CN1CCN(CC(O)COc2c3ccccc3nc3ccccc23)CC1` (stereo unspecified) the survivor count [10] was 2 of 6.

For `COc1ccc(NC(=O)NNC(N)=S)cc1`, the survivor count [9] was 2 of 6.

For `OCCCN1CCCCC1CO` (stereo unspecified), the T/C [1] was 130 % of control and the T/C [2] was 146 % of control.

In the case of `CCN(CC)CCOc1ccc(N(CCCl)CCCl)cc1`, the T/C (dose: 6.25 mg/kg/injection, schedule: Q04DX003 (ip), vehicle: Klucel (hydroxypropylcellulose) (HPC)) is reported as 130 % of control, the survivor count (dose: 50.0 mg/kg/injection, schedule: Q04DX003 (ip), vehicle: Klucel (hydroxypropylcellulose) (HPC)) is reported as 6 of 6 and the survivor count (dose: 100.0 mg/kg/injection, schedule: Q04DX003 (ip), vehicle: Klucel (hydroxypropylcellulose) (HPC)) is reported as 0 of 6. The survivor count (dose: 200.0 mg/kg/injection, schedule: Q04DX003 (ip), vehicle: Klucel (hydroxypropylcellulose) (HPC)) was 0 of 6 and the survivor count (dose: 400.0 mg/kg/injection, schedule: Q04DX003 (ip), vehicle: Klucel (hydroxypropylcellulose) (HPC)) was 0 of 6.

`Cc1c(CN2CCOC(c3ccccc3)C2C)c(=O)n(-c2ccccc2)n1C` (stereo unspecified) was tested, and the survivor count [11] was 0 of 6.

For `CCOP(=O)(OCC)SCSC(C)C`, the survivor count (dose: 0.78 mg/kg/injection, schedule: Q01DX009 (ip), vehicle: Klucel (hydroxypropylcellulose) (HPC)) was 6 of 6, the survivor count (dose: 1.56 mg/kg/injection, schedule: Q01DX009 (ip), vehicle: Klucel (hydroxypropylcellulose) (HPC)) was 6 of 6 and the survivor count (dose: 3.12 mg/kg/injection, schedule: Q01DX009 (ip), vehicle: Klucel (hydroxypropylcellulose) (HPC)) was 5 of 6. The survivor count (dose: 12.5 mg/kg/injection, schedule: Q01DX009 (ip), vehicle: Klucel (hydroxypropylcellulose) (HPC)) was 0 of 6, the survivor count (dose: 25.0 mg/kg/injection, schedule: Q01DX009 (ip), vehicle: Klucel (hydroxypropylcellulose) (HPC)) was 0 of 6 and the survivor count (dose: 50.0 mg/kg/injection, schedule: Q01DX009 (ip), vehicle: Klucel (hydroxypropylcellulose) (HPC)) was 0 of 6. The survivor count (dose: 100.0 mg/kg/injection, schedule: Q01DX009 (ip), vehicle: Klucel (hydroxypropylcellulose) (HPC)) was 0 of 6 and the survivor count [11] was 0 of 6.

With `CN(C)C(=O)c1cccc(COc2ccc([N+](=O)[O-])cc2Cl)c1` the T/C [9] was 130 % of control.

In the case of `COC1=CC(=O)C(c2cc(O)c(OC)cc2O)=CC1=O`, the survivor count [8] is reported as 2 of 5 and the survivor count [10] is reported as 1 of 5.

For `CNC(=O)OCc1c(COC(=O)NC)c(-c2ccsc2)n2c1CCC2`, the T/C (dose: 30.0 mg/kg/injection, schedule: Q01DX005 (ip), vehicle: saline with Tween-80) was 125 % of control, the survivor count [5] was 1 of 6 and the survivor count [6] was 0 of 6.

In the case of `CCN(CC)C1CC(O[C@H]2C[C@](O)(C(=O)CO)Cc3c(O)c4c(c(O)c32)C(=O)c2c(OC)cccc2C4=O)OC(C)C1O` (stereo partly specified), the T/C (dose: 0.39 mg/kg/injection, schedule: Q01DX009 (ip), vehicle: water) is reported as 125 and 142 % of control, the T/C (dose: 0.78 mg/kg/injection, schedule: Q01DX009 (ip), vehicle: water) is reported as 142 and 148 % of control and the T/C (dose: 1.56 mg/kg/injection, schedule: Q01DX009 (ip), vehicle: water) is reported as 149 % of control. The survivor count (dose: 6.25 mg/kg/injection, schedule: Q01DX009 (ip), vehicle: water) was 5 of 6 and 6 of 6 and the survivor count (dose: 12.5 mg/kg/injection, schedule: Q01DX009 (ip), vehicle: water) was 2 of 6 and 3 of 6.
